Results published in paper PMC3924264.
No constants are given. Whether binding was seen depends on the method and setting. In cells and extracts the contact can be indirect. Some binding calls cover weakened binding; strength is not graded here.

The chains behind the UniProt entries cited, without tags or fusion partners. Residues count along the entry.
UniProt P22888, residues 27-699: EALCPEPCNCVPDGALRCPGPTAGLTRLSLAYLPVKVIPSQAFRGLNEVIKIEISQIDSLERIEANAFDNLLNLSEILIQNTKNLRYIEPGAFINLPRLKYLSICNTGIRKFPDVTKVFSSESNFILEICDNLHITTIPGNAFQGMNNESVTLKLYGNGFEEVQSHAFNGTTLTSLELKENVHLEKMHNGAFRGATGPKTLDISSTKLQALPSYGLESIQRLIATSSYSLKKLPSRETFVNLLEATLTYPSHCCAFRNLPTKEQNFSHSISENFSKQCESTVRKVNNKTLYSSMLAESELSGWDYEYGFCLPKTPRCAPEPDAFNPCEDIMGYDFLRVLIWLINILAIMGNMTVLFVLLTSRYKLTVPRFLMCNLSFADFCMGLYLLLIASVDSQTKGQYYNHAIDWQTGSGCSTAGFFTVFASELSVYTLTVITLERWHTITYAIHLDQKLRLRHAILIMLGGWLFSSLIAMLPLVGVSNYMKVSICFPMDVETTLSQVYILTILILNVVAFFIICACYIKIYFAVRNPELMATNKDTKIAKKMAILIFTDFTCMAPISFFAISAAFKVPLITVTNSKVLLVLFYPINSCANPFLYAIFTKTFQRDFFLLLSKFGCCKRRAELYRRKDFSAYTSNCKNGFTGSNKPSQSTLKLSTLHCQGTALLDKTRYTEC

Legend:
[1] = molecular target: FLAG-tagged human luteinizing hormone receptor (human) (UniProt P22888); assay: co-IP; cells cross-linked with 1 mM DSP for 2 h at 4 °C; lysis in 0.5% Triton, 50 mM Tris-HCl, 140 mM NaCl, 0.5 mM EDTA; FLAG-tagged receptors precipitated overnight on M2-agarose; immunoblot of FLAG and endogenous GIPC
[2] = molecular target: FLAG-tagged human β2-adrenergic receptor (human) (UniProt P07550); assay: as above

B1: GAIP-interacting protein C terminus (protein, UniProt O14908 1-333)
chain: MPLGLGRRKKAPPLVENEEAEPGRGGLGVGEPGPLGGGGSGGPQMGLPPPPPALRPRLVFHTQLAHGSPTGRIEGFTNVKELYGKIAEAFRLPTAEVMFCTLNTHKVDMDKLLGGQIGLEDFIFAHVKGQRKEVEVFKSEDALGLTITDNGAGYAFIKRIKEGSVIDHIHLISVGDMIEAINGQSLLGCRHYEVARLLKELPRGRTFTLKLTEPRKAFDMISQRSAGGRPGSGPQLGTGRGTLRLRSRGPATVEDLPSAFEEKAIEKVDDLLESYMGIRDTELAATMVELGKDKRNPDELAEALDERLGDFAFPDEFVFDVWGAIGDAKVGRY
For B1, the binding [1] was “binds” and the binding [2] was “no binding”.
